The values that follow come from article PMC7819943, “Rice protein-binding microarrays: a tool to detect cis-acting elements near promoter regions in rice”.

By UniProt entry, the sequences of proteins in these tests, tags left out.
UniProt Q0JBA9, entry or part of it: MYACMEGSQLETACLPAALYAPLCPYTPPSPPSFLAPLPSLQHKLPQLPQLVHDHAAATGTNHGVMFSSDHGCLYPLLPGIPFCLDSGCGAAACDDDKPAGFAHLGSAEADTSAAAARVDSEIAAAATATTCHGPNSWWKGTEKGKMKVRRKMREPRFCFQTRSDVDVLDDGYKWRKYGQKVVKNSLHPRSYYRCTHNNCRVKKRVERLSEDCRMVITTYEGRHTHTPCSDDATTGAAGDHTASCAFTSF

Some of the results follow.

This assay addresses OsWRKY34 (Oryza sativa, UniProt Q0JBA9 1-250). The assay can be described thus: protein-binding microarray (RPBM); PBS, 2% BSA, 51.3 ng/ul salmon testes DNA, 50 uM zinc acetate, 200 nM TF, 25 C, 1 h; high values mean tight binding. To be noted: protein: recombinant; tags: N-terminal polyhistidine and DsRed monomer fusion (pET32a); label: CyDye5-dUTP incorporated in the synthesized complementary strand; 3' TTTTT single-stranded linker to array surface; dsDNA, one strand shown. Summed up:
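Per-feature fluorescence intensity (arbitrary units), read on an Axon 4000B scanner, is the binding signal. Transcription factors carrying an N-terminal polyhistidine tag and DsRed fusion were expressed in E. coli BL21-CodonPlus and purified on Ni–NTA. A custom Agilent array, made double-stranded by primer extension with Cy5-dUTP and blocked with 2% BSA, was incubated with 200 nM protein in PBS, 2% BSA, salmon testes DNA and 50 µM zinc acetate at 25 °C for 1 h and then washed.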
For “CATCCGTTTCAAAATGTTTGACACCGTTGACTTTTTAGCACGGAGTCACCTAGTGCAG”, the binding signal is 26200 fluorescence intensity (a.u.).

Consider “GTGGATTTTTTTTTTCTTTTCTTTTTTCGTTGTTATTTGTCGGAGTCACCTAGTGCAG”, for which the binding signal was 10600 fluorescence intensity (a.u.).

Regarding “CACAGTTCGGATCCGACCACTCCACGTCTCCACCCGGCCGCGGAGTCACCTAGTGCAG”, the binding signal was 8340 fluorescence intensity (a.u.).

For “ATATTTCGGGTGAGGTCCTCTGAAAAAGTGTCTTTTCTCTCGGAGTCACCTAGTGCAG”, the binding signal was 8090 fluorescence intensity (a.u.).

Consider “TTAGTAGTACTTGTTTGTTGGTATGCCGTGCTGCCAAACTCGGAGTCACCTAGTGCAG”, for which the binding signal was 8040 fluorescence intensity (a.u.).

For “CGTCGTTGACTTTTTTAAACATATTTGACCGTTCGTCTTACGGAGTCACCTAGTGCAG”, the binding signal was 17100 fluorescence intensity (a.u.).

Regarding “GGAATTCTCTGCTTCCTGGTGCCTCCACGTCATCCTTTTTCGGAGTCACCTAGTGCAG”, the binding signal was 10600 fluorescence intensity (a.u.).

Turning to “ACGTAAACTTTCAACTTTTTTAACACATCGTTCCAGTTTCCGGAGTCACCTAGTGCAG”, the binding signal is 9610 fluorescence intensity (a.u.).

Turning to “ATTTCTAGGGTTCAAATCAAATCCAACCTCACCTTGTCCTCGGAGTCACCTAGTGCAG”, the binding signal was 8880 fluorescence intensity (a.u.).

On to “CCTACACCGTTGCAACACGCGTCAAACTTGCTCGATCTCTCGGAGTCACCTAGTGCAG”, for which the binding signal is 10300 fluorescence intensity (a.u.).

Consider “AACACCATCTCTCTTTTCCAACCCTTTTGCCATCGTCCTCCGGAGTCACCTAGTGCAG”, for which the binding signal is 9620 fluorescence intensity (a.u.).

For “CTGGTGCTCGATTCATAGTTTGACCAGCGGACCCCGTAAACGGAGTCACCTAGTGCAG”, the binding signal was 9300 fluorescence intensity (a.u.).

As for “ATAACAATTTATTCTTTTTGTCAAGCTCGTCTCCAGCACCCGGAGTCACCTAGTGCAG”, the binding signal was 9140 fluorescence intensity (a.u.).

In the case of “TGTTTGGATTGCTAATCTGCTGTGCTAAGTCTGTTTAAATCGGAGTCACCTAGTGCAG”, the binding signal is 8710 fluorescence intensity (a.u.).

As to “CCCCGTCTGTTTCCACCAAATTCCGTTGATTATCACGGGACGGAGTCACCTAGTGCAG”, the binding signal was 10400 fluorescence intensity (a.u.).

On to “GACTAAGGAACATTTCCTCCCCGTTGACCACAAACGAACACGGAGTCACCTAGTGCAG”, for which the binding signal was 14900 fluorescence intensity (a.u.).

For the sequence “TGCCGCCGCCGTCGCCCCAGAGCTCACGTTCCGCTGTCGCCGGAGTCACCTAGTGCAG”, the binding signal was 8540 fluorescence intensity (a.u.).

As for “ATTTTCCCGTCTCCTTCGGCGGCATCCACCCCAATTCATCCGGAGTCACCTAGTGCAG”, the binding signal is 8430 fluorescence intensity (a.u.).

In the case of “GGGTTAAATAGCTACTCCATCCATTTCATATTGTAAGACTCGGAGTCACCTAGTGCAG”, the binding signal was 8570 fluorescence intensity (a.u.).

As for “TGTGTGCTGCTGCCTGCCTAATTATGATTTATTCCCACACCGGAGTCACCTAGTGCAG”, the binding signal was 11300 fluorescence intensity (a.u.).

For “AAAGCTGTTCTCCACTGTTTCTGTTGCAGGATCCCGTTGACGGAGTCACCTAGTGCAG”, the binding signal is 10800 fluorescence intensity (a.u.).

With “GAGCTTTTTTCTTTCTTTCTTCCATTGCTTTCCTGTATGGCGGAGTCACCTAGTGCAG”, the binding signal was 13600 fluorescence intensity (a.u.).

Consider “TTTGGTTTGTACGTCGTTGGTTTCGGATGTGATTTTTGCTCGGAGTCACCTAGTGCAG”, for which the binding signal is 8850 fluorescence intensity (a.u.).
